Experimental data reported in doi:10.1101/2021.02.02.429436.
These are yes or no findings as the source states them, for the method shown. In cells and extracts the contact can be indirect. A result given as binding can be weak or reduced; the word gives no strength. Where a sequence is shown, tags or fusion partners need not be part of it.

Target: embryonic PABP (ePABP) (X. laevis (endogenous in oocytes))
Experiment: RNA co-immunoprecipitation

B1: MS2-DAZL (murine DAZL fused to the phage MS2 coat protein) (protein, UniProt Q64368 1-298)
chain: MSATTSEAPNSAVSREASTQSSSATTSQGYVLPEGKIMPNTVFVGGIDVRMDETEIRSFFARYGSVKEVKIITDRTGVSKGYGFVSFYNDVDVQKIVESQINFHGKKLKLGPAIRKQNLCTYHVQPRPLIFNPPPPPQFQSVWSSPNAETYMQPPTMMNPITQYVQAYPPYPSSPVQVITGYQLPVYNYQMPPQWPAGEQRSYVIPPAYTTVNYHCSEVDPGADILPNECSVHDAAPASGNGPQKKSVDRSIQTVVSCLFNPENRLRNSLVTQDDYFKDKRVHHFRRSRAVLKSDHLC
binding: binds
